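Primary screen of methionyl-tRNA synthetase; the read-out is not stated. Target: Methionyl-tRNA synthetase (putative), Leishmania donovani (UniProt E9BF75). The test concentration is not given. The values are filed as inhibition. About 68,000 compounds were tested under these conditions; 0.035% (about 24) showed 50% or more at least once.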

By UniProt entry, the sequences of proteins in these tests, tags left out.
UniProt E9BF75, entry or part of it: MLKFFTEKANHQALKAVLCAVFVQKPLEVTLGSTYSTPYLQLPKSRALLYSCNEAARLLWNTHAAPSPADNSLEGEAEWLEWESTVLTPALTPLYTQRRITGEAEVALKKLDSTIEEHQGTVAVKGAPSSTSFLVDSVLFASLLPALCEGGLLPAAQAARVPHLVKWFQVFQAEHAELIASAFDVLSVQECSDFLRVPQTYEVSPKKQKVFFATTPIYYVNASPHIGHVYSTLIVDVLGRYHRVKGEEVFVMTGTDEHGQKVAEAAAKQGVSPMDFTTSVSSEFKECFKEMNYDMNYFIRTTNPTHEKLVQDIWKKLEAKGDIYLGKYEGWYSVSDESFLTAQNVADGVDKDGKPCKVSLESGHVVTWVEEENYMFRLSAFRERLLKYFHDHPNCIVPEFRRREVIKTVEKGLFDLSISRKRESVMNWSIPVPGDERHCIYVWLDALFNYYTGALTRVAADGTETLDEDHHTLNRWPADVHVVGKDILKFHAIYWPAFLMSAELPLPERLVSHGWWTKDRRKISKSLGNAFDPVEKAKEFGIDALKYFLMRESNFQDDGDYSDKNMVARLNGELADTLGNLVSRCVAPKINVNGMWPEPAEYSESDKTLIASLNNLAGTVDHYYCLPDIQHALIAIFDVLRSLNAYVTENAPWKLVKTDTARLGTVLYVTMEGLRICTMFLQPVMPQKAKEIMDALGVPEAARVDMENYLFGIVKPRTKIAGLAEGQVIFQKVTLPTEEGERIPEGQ

Results are percentages, as filed.
The record does not define 0% and 100%; most values in the screen are far below 50% and negative numbers occur (in some assays of this library far below -100).
The compounds are a random part of those screened.

| # | Compound | inhibition |
|---|---|---|
| 1 | `Cc1nnc2n1CCN(Cc1csc(CC(=O)N(C)C)n1)C2` | 11.75% |
| 2 | `CC(C)N1[C@H](Cn2cncn2)C[C@@H]2CNCC[C@@H]21` | -6.767% |
| 3 | `CCCC1(CO)CCCN(C(=O)CCCn2nc(C)cc2C)C1` (stereo not drawn) | 6.25% |
| 4 | `O=S(=O)(NC1=NCN(CCc2cccs2)CN1)c1ccc(Br)cc1` | 15.45% |
| 5 | `Cc1ccccc1C(=O)N1C[C@@H]2C[C@@H](C)O[C@@H]2C1` | 14.49% |
| 6 | `CCNC(=O)[C@@H]1C[C@@H](NC(=O)c2cccn2C)CN1CCCSC` | 16.56% |
| 7 | `CCC(C)NC(=O)c1cc(Br)c2c(c1)OCCO2` (stereo not drawn) | 23.99% |
| 8 | `O=C(c1nc2c(s1)CCCN2C(=O)C1CC1)N1CCOCC1` | 14.19% |
| 9 | `CNc1nc(CNC(=O)Nc2ccccc2C(F)(F)F)cs1` | 13.66% |
| 10 | `CCc1ncncc1C(=O)NC1CCc2nc(C)cn2C1` (stereo not drawn) | 13.26% |
| 11 | `Cc1c[nH]c(C2CCCN2C(=O)CCc2c(C)n[nH]c2C)n1` (stereo not drawn) | 11.21% |
| 12 | `CN(C)c1cc(CNC(=O)c2cccnc2O)ccn1` | 15.47% |
| 13 | `CC(=O)NCCNC(=O)C1(Oc2cccnc2C)CCNCC1` | 2.847% |
| 14 | `O=C(NCCn1ccnc1)N1CCCN(Cc2cccs2)CC1` | 23.3% |
| 15 | `O=C(NCC1CCN(c2ncccn2)CC1)c1cnccn1` | 12.93% |
| 16 | `CC(C)c1noc(C(C)S(=O)(=O)CC(=O)N2CCCC2)n1` (stereo not drawn) | 6.269% |
| 17 | `CC(C)c1noc(CCC(=O)NCC(c2ccco2)N2CCCC2)n1` (stereo not drawn) | 12.03% |
| 18 | `CN1CCC(NC(=O)Nc2ccc(Br)c(F)c2)C1=O` (stereo not drawn) | 19.23% |
| 19 | `CN1C(=O)C[C@@H]2[C@@H]1CCN2C(=O)c1ccc[nH]1` | 8.5% |
| 20 | `CCn1cc(S(=O)(=O)NC(CO)Cc2ccccc2)cn1` (stereo not drawn) | 22.34% |
| 21 | `O=S(=O)(NC(CO)Cc1c[nH]c2ccccc12)c1cncc(F)c1` (stereo not drawn) | 6.738% |
| 22 | `Cc1ccc(CN2CCOC(C)(c3cnn(C)c3)C2)cc1` (stereo not drawn) | 10.6% |
| 23 | `O=C(C1=CC2(CCNCC2)c2ccccc21)N1CCCC1` | 13.81% |
| 24 | `O=C1COC2(CCN(Cc3ccoc3)CC2)CN1` | 12.97% |
| 25 | `Cn1cnc(CN2Cc3nccn3CC2c2ccccc2)c1` (stereo not drawn) | 11.56% |
| 26 | `CC1CCCN(C(=O)c2ccc(N(C)Cc3cnn(C)c3)nc2)C1` (stereo not drawn) | 6.977% |
| 27 | `COc1cc(C(=O)N(C)C)ccc1NC(=O)c1ccsc1` | 3.679% |
| 28 | `Cn1ccnc1CN1CCN(c2ccc(C#N)cc2F)CC1` | 12.38% |
| 29 | `COc1cnc(C2(O)CCN(C(=O)c3ccco3)CC2)c(OC)n1` | 4.941% |
| 30 | `CC1COCCN1C(=O)c1ccc(=O)n(Cc2ccccc2)n1` (stereo not drawn) | 15.65% |
| 31 | `CN(CC1COc2ccccc2O1)C(=O)NCCCn1ccnc1` (stereo not drawn) | -3.061% |
| 32 | `Cc1csc(CN2CCC(C(=O)O)(n3ccc(-c4ccco4)n3)CC2)n1` | -6.135% |
| 33 | `NC(=O)CN1CCC(C(=O)NCCn2cc(Cl)cn2)CC1` | 7.357% |
| 34 | `CC(C)c1cnc(N2C[C@H](CO)C[C@H](CN3CCOCC3)C2)nc1` | 9.926% |
| 35 | `N[C@H]1CC[C@@H](n2cc(C(=O)NC3CCc4ccccc4C3)nn2)CC1` (stereo partly drawn) | 20.5% |
| 36 | `O=c1[nH]cnc2c1CCN(S(=O)(=O)c1ccc(OC(F)(F)F)cc1)C2` | 21.5% |
| 37 | `COC(=O)CCC(=O)NC1CCCc2cc(OC(F)F)ccc21` (stereo not drawn) | 5.072% |
| 38 | `COC(=O)[C@@H]1Cc2ncn(C)c2CN1S(=O)(=O)Cc1ccccc1` | 3.008% |
| 39 | `Cc1nc(N2CCOCC2)sc1C(=O)NCC(C)(C)N1CCCCC1` | 9.841% |
| 40 | `Cc1nn(C)c(C)c1C1CCCN1C(=O)CCNS(C)(=O)=O` (stereo not drawn) | 15.91% |
| 41 | `COC(=O)CCn1ccc(=O)c2cc(OC)ccc21` | -37.57% |
| 42 | `CC(=O)Nc1ccc(CN2CCc3[nH]cnc3C2c2ccc(C)o2)cc1` (stereo not drawn) | 12.89% |
| 43 | `Cc1ccc(O[C@@H]2C[C@H]3CN(C(=O)c4cccnc4)CCN3C2)cc1` | 2.5% |
| 44 | `COc1cccc(C2CCCN2C(=O)CC2=CSC3=NCCCN23)c1` (stereo not drawn) | 6.954% |
| 45 | `CCc1cnc(C)nc1NCCN1CCOCC1` | 5.376% |
| 46 | `CNCc1cc(F)ccc1Oc1ccc(F)cc1F` | 10% |
| 47 | `COc1ncccc1C(=O)NCC1Cc2ccccc2O1` (stereo not drawn) | 2.463% |
| 48 | `Cc1ncnc2c1CCN(C(=O)c1cccc(F)c1)CC2` | 5.263% |
| 49 | `Cc1cnn(CC2CN(CC(=O)NCCc3cccs3)CCO2)c1` (stereo not drawn) | 18.18% |
| 50 | `O=C(CN1CC(c2nc(-c3ccco3)no2)C1)NCc1ccc(F)cc1` | 12.15% |
| 51 | `COc1ccc(Cn2cc(C(C)O)nn2)cc1` (stereo not drawn) | 6.469% |
| 52 | `O=C(CCN1CCc2ccccc21)N1CC(C(=O)N2CCOCC2)C1` | 7.097% |
| 53 | `Cc1nc(CNc2ccc(C(=O)NCc3ccco3)cc2C)no1` | 11.35% |
| 54 | `CNC(=O)CS(=O)(=O)Cc1coc(-c2ccc(OC)cc2)n1` | 11.23% |
| 55 | `Cc1cc(CN2C[C@H]3CC[C@@H]2CN(Cc2c(C)noc2C)C3)ccc1F` | 15.88% |
| 56 | `CSc1ccc(OCCN2CCNC(=O)CC2)cc1` | 21.67% |
| 57 | `CN(C)S(=O)(=O)c1ccc(CN2CCCC2c2ccc[nH]2)o1` (stereo not drawn) | 8.661% |

6 of the entries, repeated:

COc1cccc(C2CCCN2C(=O)CC2=CSC3=NCCCN23)c1 (stereo not drawn) gave 6.954%.
CN(CC1COc2ccccc2O1)C(=O)NCCCn1ccnc1 (stereo not drawn) gave -3.061%.
Cc1c[nH]c(C2CCCN2C(=O)CCc2c(C)n[nH]c2C)n1 (stereo not drawn) gave 11.21%.
Cc1nn(C)c(C)c1C1CCCN1C(=O)CCNS(C)(=O)=O (stereo not drawn) gave 15.91%.
Cc1nc(N2CCOCC2)sc1C(=O)NCC(C)(C)N1CCCCC1 gave 9.841%.
CC1COCCN1C(=O)c1ccc(=O)n(Cc2ccccc2)n1 (stereo not drawn) gave 15.65%.

The values are deposited in ChEMBL (CHEMBL3988442, “University of Dundee, Small-Polar-MMV Screening Library” (2021)).